Measured values as given in the supplement of paper PMC12819154, “High-throughput peptide-centric local stability assay extends protein–ligand identification to membrane proteins, tissues and bacteria” (Nature Structural & Molecular Biology, 2025).
The other results are listed elsewhere or left out. Small differences around the control level are noise.

Chains of the proteins cited; added tags and fusions are not shown. Lines headed by an entry give the natural chain unless they say otherwise; changes in a name come on top.
UniProt Q9BRG1: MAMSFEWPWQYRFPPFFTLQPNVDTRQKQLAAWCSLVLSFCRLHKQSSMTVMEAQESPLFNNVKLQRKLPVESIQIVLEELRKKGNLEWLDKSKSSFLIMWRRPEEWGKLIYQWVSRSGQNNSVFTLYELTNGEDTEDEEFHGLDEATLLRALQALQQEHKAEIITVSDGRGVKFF
UniProt Q9BSJ5: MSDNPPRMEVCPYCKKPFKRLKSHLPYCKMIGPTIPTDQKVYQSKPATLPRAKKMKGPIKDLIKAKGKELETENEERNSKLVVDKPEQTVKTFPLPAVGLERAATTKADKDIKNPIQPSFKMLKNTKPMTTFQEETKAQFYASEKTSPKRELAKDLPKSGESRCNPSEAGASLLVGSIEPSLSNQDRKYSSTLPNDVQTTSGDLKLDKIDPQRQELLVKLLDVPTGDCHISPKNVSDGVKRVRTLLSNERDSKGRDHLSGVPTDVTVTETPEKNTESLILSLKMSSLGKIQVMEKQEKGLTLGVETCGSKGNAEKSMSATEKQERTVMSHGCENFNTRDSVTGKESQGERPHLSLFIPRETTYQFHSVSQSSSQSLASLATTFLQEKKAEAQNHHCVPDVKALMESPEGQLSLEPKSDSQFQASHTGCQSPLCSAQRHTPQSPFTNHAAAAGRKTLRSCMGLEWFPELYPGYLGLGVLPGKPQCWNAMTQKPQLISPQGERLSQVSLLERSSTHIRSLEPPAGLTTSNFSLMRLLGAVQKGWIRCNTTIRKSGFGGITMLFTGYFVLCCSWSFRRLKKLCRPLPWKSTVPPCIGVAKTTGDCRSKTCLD
UniProt Q9BW27: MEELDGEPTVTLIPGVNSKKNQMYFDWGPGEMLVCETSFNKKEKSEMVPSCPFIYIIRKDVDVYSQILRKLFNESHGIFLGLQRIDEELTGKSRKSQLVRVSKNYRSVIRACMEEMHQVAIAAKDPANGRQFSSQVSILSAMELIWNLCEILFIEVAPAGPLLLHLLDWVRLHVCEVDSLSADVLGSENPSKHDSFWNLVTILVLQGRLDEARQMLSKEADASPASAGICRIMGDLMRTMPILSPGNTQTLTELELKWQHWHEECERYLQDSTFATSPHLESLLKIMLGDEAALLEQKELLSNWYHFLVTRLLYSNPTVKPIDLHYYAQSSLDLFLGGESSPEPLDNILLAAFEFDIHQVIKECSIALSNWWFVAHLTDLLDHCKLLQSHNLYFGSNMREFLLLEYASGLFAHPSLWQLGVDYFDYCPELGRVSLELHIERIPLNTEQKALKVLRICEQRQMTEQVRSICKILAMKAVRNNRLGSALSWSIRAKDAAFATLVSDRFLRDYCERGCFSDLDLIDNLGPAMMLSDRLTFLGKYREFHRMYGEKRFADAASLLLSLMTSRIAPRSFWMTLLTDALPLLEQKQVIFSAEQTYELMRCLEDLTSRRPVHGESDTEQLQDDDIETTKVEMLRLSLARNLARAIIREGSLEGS
UniProt Q99549: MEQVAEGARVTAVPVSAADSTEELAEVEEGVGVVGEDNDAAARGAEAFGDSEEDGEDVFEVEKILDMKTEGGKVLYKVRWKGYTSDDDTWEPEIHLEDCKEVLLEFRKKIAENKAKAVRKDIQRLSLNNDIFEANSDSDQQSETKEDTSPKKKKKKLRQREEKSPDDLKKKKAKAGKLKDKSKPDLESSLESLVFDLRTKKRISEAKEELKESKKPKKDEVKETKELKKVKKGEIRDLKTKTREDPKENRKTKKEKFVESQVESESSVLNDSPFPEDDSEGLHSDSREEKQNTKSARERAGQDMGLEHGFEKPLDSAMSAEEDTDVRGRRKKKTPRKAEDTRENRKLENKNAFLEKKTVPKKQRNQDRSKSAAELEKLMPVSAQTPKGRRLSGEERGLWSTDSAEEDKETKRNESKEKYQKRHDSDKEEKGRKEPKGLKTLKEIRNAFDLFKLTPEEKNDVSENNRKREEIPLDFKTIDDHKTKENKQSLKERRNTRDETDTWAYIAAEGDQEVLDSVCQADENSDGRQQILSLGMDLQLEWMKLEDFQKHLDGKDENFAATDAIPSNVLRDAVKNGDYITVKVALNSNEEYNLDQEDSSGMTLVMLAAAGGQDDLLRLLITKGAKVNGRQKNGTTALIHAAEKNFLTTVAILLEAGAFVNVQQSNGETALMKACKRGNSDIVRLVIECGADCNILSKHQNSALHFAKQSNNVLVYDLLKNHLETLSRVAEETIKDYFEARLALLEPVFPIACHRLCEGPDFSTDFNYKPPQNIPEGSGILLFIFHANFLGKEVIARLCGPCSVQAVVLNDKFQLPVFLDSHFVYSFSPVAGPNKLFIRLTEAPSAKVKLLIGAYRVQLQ
UniProt Q9BVJ6: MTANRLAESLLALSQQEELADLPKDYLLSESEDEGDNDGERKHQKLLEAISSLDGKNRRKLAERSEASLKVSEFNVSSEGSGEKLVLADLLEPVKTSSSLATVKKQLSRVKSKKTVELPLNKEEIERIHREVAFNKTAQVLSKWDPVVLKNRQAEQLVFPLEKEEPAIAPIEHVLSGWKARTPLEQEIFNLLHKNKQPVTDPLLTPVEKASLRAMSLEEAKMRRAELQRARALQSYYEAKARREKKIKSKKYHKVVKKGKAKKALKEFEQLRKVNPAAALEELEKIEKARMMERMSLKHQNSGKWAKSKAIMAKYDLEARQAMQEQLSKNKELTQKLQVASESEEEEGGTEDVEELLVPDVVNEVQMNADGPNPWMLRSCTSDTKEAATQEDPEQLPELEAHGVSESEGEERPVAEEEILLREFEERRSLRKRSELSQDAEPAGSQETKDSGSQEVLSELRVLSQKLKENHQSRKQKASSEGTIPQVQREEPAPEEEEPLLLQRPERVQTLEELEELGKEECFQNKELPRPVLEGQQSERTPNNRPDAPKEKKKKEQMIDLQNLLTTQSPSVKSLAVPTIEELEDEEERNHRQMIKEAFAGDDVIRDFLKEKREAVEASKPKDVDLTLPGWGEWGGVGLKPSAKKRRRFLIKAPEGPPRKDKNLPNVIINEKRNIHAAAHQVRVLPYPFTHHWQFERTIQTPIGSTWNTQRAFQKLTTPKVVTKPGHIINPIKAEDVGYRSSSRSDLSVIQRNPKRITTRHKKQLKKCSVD
UniProt Q9BQE6: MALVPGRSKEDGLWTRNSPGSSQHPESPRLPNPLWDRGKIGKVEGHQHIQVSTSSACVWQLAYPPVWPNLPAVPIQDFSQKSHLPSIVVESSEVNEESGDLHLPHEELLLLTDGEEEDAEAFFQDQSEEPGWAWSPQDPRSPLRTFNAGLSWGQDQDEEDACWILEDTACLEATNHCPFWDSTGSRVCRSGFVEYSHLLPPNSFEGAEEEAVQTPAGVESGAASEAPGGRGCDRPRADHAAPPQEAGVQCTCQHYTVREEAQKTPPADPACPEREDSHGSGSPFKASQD
UniProt Q99728: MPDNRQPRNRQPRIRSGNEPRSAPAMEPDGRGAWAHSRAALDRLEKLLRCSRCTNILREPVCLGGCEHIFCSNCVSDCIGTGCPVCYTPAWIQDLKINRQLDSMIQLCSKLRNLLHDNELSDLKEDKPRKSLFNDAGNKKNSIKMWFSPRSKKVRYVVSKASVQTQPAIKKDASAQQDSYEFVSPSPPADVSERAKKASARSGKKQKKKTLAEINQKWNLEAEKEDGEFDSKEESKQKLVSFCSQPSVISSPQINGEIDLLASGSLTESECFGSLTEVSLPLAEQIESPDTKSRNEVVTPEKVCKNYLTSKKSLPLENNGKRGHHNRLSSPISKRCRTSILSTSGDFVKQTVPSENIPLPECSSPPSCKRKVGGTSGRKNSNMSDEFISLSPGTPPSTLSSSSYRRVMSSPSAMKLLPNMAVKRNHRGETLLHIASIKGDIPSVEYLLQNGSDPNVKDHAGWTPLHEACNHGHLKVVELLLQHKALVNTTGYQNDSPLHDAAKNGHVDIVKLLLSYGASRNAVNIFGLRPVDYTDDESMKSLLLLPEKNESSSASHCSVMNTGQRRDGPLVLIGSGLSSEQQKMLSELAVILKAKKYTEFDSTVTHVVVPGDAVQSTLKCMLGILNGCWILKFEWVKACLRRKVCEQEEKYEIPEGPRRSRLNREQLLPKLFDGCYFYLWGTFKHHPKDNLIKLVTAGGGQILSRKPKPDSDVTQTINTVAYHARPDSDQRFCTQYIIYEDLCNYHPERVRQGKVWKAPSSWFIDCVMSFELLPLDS
UniProt Q9BRV8: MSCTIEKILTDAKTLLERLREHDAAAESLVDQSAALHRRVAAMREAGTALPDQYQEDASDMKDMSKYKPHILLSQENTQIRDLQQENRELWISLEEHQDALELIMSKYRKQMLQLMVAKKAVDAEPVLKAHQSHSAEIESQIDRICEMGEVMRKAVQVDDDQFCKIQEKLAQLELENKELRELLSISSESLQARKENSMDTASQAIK
UniProt Q99627: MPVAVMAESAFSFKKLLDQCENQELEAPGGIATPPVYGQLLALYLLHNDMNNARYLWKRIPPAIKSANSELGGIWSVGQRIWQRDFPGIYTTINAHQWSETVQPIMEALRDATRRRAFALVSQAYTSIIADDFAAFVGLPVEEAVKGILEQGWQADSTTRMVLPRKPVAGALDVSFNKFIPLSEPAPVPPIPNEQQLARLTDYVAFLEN
UniProt Q9BS26: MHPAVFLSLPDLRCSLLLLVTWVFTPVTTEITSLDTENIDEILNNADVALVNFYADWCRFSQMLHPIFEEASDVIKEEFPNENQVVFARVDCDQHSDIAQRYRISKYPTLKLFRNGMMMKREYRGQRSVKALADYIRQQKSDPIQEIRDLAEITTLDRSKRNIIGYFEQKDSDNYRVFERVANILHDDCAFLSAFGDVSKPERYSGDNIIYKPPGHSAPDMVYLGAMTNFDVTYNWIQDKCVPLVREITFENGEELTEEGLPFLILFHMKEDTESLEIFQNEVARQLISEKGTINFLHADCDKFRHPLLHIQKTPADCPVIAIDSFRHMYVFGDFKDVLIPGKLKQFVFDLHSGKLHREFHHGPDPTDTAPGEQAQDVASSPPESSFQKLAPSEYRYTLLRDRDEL
UniProt Q9BV79: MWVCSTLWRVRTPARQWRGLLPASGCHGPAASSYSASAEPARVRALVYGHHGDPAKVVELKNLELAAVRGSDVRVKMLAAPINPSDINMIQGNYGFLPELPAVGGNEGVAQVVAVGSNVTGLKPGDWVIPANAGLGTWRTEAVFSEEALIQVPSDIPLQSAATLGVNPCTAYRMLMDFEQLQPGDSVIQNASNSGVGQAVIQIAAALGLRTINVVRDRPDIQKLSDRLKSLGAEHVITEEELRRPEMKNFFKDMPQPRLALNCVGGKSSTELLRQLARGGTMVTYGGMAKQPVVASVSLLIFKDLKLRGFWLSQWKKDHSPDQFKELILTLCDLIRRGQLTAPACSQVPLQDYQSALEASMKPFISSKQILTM
UniProt Q9BRS2: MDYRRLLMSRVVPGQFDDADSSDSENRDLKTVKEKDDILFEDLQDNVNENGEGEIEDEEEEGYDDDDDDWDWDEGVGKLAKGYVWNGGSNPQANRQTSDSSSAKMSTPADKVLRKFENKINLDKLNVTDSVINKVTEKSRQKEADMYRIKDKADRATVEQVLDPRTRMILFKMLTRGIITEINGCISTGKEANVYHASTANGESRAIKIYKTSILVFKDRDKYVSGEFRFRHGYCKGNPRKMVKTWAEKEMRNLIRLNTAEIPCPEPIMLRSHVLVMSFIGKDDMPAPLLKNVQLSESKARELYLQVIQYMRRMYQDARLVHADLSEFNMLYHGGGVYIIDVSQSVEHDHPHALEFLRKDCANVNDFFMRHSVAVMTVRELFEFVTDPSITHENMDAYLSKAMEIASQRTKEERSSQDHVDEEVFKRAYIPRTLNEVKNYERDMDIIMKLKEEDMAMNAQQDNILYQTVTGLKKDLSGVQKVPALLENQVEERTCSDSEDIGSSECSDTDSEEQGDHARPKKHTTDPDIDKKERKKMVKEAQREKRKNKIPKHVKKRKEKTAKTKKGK
UniProt Q99501: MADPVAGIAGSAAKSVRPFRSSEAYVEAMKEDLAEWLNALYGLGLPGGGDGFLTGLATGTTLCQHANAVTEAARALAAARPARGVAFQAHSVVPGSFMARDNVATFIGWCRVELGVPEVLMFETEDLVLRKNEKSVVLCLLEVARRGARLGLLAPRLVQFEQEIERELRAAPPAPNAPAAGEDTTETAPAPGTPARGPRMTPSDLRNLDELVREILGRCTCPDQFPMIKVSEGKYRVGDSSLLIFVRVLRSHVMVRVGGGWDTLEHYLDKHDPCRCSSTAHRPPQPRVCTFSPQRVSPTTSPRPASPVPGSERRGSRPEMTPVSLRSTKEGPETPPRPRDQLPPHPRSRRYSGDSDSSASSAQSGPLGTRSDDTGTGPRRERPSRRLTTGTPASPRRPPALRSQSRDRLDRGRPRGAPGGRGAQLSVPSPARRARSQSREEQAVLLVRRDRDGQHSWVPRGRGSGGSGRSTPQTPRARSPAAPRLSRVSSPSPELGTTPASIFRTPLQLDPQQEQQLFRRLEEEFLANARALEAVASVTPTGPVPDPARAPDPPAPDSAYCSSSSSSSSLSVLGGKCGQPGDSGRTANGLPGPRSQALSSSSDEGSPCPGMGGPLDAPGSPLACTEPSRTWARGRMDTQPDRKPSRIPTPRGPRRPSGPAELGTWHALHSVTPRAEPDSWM

What follows are targets tested with CN[C@@H]1C[C@H]2O[C@@](C)([C@@H]1OC)n1c3ccccc3c3c4c(c5c6ccccc6n2c5c31)C(=O)NC4 [staurosporine] (assay: log2 fold change of tryptic peptide abundance, ligand vs vehicle (limited proteolysis) (log2 ratio); higher = more trypsin-susceptible (destabilized)). Conditions: ligand concentration: 20 uM; sample: K562 cleared lysate; digestion: 4 min, 22 C (HT-PELSA RT4min, Orbitrap Astral).

Row | Target | log2 fold change
1 | CENPK (peptide sequence: LFDVPHDPYVK, peptide start residue: 223) (UniProt Q9BS16) | 0.515
2 | CEP250 (peptide sequence: ENLTAQVEHLQAAVVEAR, peptide start residue: 1351) (UniProt Q9BV73) | 0.463
3 | UniProt Q9BVL4 (peptide sequence: YAYSKQPEVCR, peptide start residue: 373) | -0.336
4 | HNRNPAB (peptide sequence: MFVGGLSWDTSKK, peptide start residue: 71) (UniProt Q99729) | -0.118
5 | TRIM56 (peptide sequence: GSLLGDFLTAYHGLEKPR, peptide start residue: 709) (UniProt Q9BRZ2) | 0.432
6 | UniProt Q99966 (peptide sequence: KAVAILHYPGVASNGTK, peptide start residue: 40) | 0.246
7 | UniProt Q9BRX9 (peptide sequence: DTHVVSCSEDGK, peptide start residue: 247) | 1.1
8 | RAD9A (peptide sequence: CCISLNGR, peptide start residue: 97) (UniProt Q99638) | 0.277
9 | VPS25 (peptide sequence: LIYQWVSR, peptide start residue: 110) (UniProt Q9BRG1) | -0.284
10 | WDR77 (peptide sequence: MRKETPPPLVPPAAR, peptide start residue: 1) (UniProt Q9BQA1) | 0.787
11 | C17orf80 (peptide sequence: TVMSHGCENFNTR, peptide start residue: 326) (UniProt Q9BSJ5) | 0.305
12 | PRMT1 (peptide sequence: DVAIKEPLVDVVDPK, peptide start residue: 229) (UniProt Q99873) | 0.366
13 | NUP85 (peptide sequence: LLQSHNLYFGSNMR, peptide start residue: 386) (UniProt Q9BW27) | -0.484
14 | MPHOSPH8 (peptide sequence: EVLLEFR, peptide start residue: 101) (UniProt Q99549) | -0.124
15 | CINP (peptide sequence: GICELENYHYGEESK, peptide start residue: 118) (UniProt Q9BW66) | -0.196
16 | UTP14A (peptide sequence: VVTKPGHIINPIK, peptide start residue: 721) (UniProt Q9BVJ6) | 0.569
17 | LBHD1 (peptide sequence: LPNPLWDR, peptide start residue: 30) (UniProt Q9BQE6) | -0.263
18 | BARD1 (peptide sequence: TLAEINQK, peptide start residue: 210) (UniProt Q99728) | 0.242
19 | UniProt Q9BU76 (peptide sequence: HHHHDSDSNSPCCKR, peptide start residue: 226) | -0.829

Row | Target | log2 fold change
20 | UniProt Q99683 (peptide sequence: DSGFFMLR, peptide start residue: 1038) | 0.102
21 | CPPED1 (peptide sequence: LTEQAVQAINK, peptide start residue: 67) (UniProt Q9BRF8) | 1.02
22 | MTG1 (peptide sequence: LVDCIIEVHDAR, peptide start residue: 48) (UniProt Q9BT17) | -0.293
23 | LLPH (peptide sequence: MQCEVKDEK, peptide start residue: 62) (UniProt Q9BRT6) | 0.32
24 | SIKE1 (peptide sequence: KAVQVDDDQFCKIQEK, peptide start residue: 154) (UniProt Q9BRV8) | -0.712
25 | UniProt Q9BSB4 (peptide sequence: IINIVEVMNR, peptide start residue: 152) | 0.275
26 | THAP7 (peptide sequence: LKEGAVPTIFESFSK, peptide start residue: 84) (UniProt Q9BT49) | 0.134
27 | AKAP9 (peptide sequence: SQSSASLIWR, peptide start residue: 1763) (UniProt Q99996) | -0.246
28 | EFHD1 (peptide sequence: FEAELKAEQDER, peptide start residue: 205) (UniProt Q9BUP0) | 0.379
29 | COPS8 (peptide sequence: KPVAGALDVSFNK, peptide start residue: 166) (UniProt Q99627) | -0.0333
30 | RNF5 (peptide sequence: QECPVCK, peptide start residue: 62) (UniProt Q99942) | -0.254
31 | ZNF692 (peptide sequence: LGGHMEQWCLLK, peptide start residue: 31) (UniProt Q9BU19) | 0.289
32 | UniProt Q9BS26 (peptide sequence: VDCDQHSDIAQR, peptide start residue: 90) | 0.507
33 | GFI1 (peptide sequence: AFSQSSNLITHSR, peptide start residue: 284) (UniProt Q99684) | 0.0653
34 | MECR (peptide sequence: SLGAEHVITEEELR, peptide start residue: 230) (UniProt Q9BV79) | -0.0641
35 | RIOK1 (peptide sequence: SSQDHVDEEVFKR, peptide start residue: 415) (UniProt Q9BRS2) | -0.172
36 | TMUB1 (peptide sequence: FLNDSEQVAR, peptide start residue: 109) (UniProt Q9BVT8) | -0.0203
37 | UniProt Q99501 (peptide sequence: RPSGPAELGTWHALHSVTPR, peptide start residue: 655) | -0.329

Random excerpt: 2 records from the list, in no set order.
Row | Target | log2 fold change
34 | MECR (peptide sequence: SLGAEHVITEEELR, peptide start residue: 230) (UniProt Q9BV79) | -0.0641
36 | TMUB1 (peptide sequence: FLNDSEQVAR, peptide start residue: 109) (UniProt Q9BVT8) | -0.0203
